Reference: PMC12040169 (PLOS Biology, 2025)
Some of the results follow.

The compounds below were run on T1, CTL2-GFP (C. trachomatis L2/434/Bu, GFP-expressing). Conditions: bulk GFP, single well; 28.5 h, 10 µM; inhibitor.
T1 construct: L2/434/Bu, GFP-expressing
Parameters: species or system HeLa; Intracellular C. trachomatis growth in HeLa cells, bulk GFP fluorescence relative to DMSO
In the case of O=C(O)C1CCC1C(=O)N1CCN(c2nc3ccc(Cl)cc3s2)CC1 (centres unmarked) [CBK057108], the “% of control remaining” value is reported as 117.856%.
With Brc1ccc(-n2cnnn2)cc1 [CBK027696] the “% of control remaining” value was 116.132%.
Cc1nc(C)c(C(=O)Nc2c(C)noc2C)s1 [CBK200313] was tested, and the “% of control remaining” value was 172.69%.
In the case of COc1ccc(-c2nc(NC(=O)C3CCC(OC)CC3)cnc2-c2cccc(C)c2)cn1 (centres unmarked) [CBK036813], the “% of control remaining” value is reported as 117.629%.
OCc1c(-c2ccc(F)cc2)[nH]c2ncccc12 [CBK283328] was tested, and the “% of control remaining” value was 118.218%.
In the case of Cc1ccc2oc(C(=O)N(C)Cc3c(C)nn(C)c3C)c(C)c2c1 [CBK281631], the “% of control remaining” value is reported as 117.724%.
With COC(=O)CN1C(=O)S/C(=C/c2cc(C)n(-c3ccc4ncccc4c3)c2C)C1=O [CBK265275] the “% of control remaining” value was 101.866%.
In the case of COC(=O)c1c(NC(=O)COc2ccc(Br)cc2)sc2c1CCC2 [CBK263369], the “% of control remaining” value is reported as 124.903%.
In the case of Cc1cccc(C)c1NC(=O)CN1CCC(Oc2cncc(OCCN3CCOCC3)n2)C1 (centres unmarked) [CBK084489], the “% of control remaining” value is reported as 100%.
With Cc1ccnc(SCc2ccc(F)cc2Cl)n1 [CBK270290] the “% of control remaining” value was 108.815%.
With O=C(c1ccccc1F)N1CCC(n2c(=O)oc3ccccc32)CC1 [CBK284346] the “% of control remaining” value was 106.908%.
With OCCN1CC2(CCN(CC3COc4ccccc4O3)CC2)c2ccccc21 (centres unmarked) [CBK143955] the “% of control remaining” value was 100%.
COc1ccccc1CC(=O)N1CCN(Cc2ccco2)C[C@@H]1C [CBK285481] was tested, and the “% of control remaining” value was 92.614%.
With O=C(Nc1ccccc1C(=O)O)c1ccc(Cl)c(S(=O)(=O)N2CCCCC2)c1 [CBK261763] the “% of control remaining” value was 93.7481%.
For CCOC(=O)CN1CC(O)CC1c1cccc(C(F)(F)F)c1 (centres unmarked) [CBK304169], the “% of control remaining” value was 94.4363%.
For O=C(c1ccco1)N1CCN(C(=O)c2c(F)cccc2F)CC1 [CBK144479], the “% of control remaining” value was 100%.
In the case of CN1c2ccccc2C(c2ccccc2)=NS1(=O)=O [CBK022873], the “% of control remaining” value is reported as 102.828%.
In the case of Cn1nc(-c2ccccc2)cc1[C@H]1CN2CC[C@H]1C[C@@H]2CNC(=O)NCc1ccccc1 [CBK289098], the “% of control remaining” value is reported as 136.502%.
With CCc1cc(OCc2ccc(Cn3nc(NC(C)=O)c4ccccc43)cc2)c2ccccc2n1 [CBK048402] the “% of control remaining” value was 100%.
With Cn1cc(-c2ncc(OCc3ccc4c(c3)OCO4)nc2N)cn1 [CBK145168] the “% of control remaining” value was 106.319%.
For O=C(CSc1ccc(Cl)cc1)Nc1ccc(S(=O)(=O)N2CCOCC2)cc1 [CBK262723], the “% of control remaining” value was 99.8195%.
In the case of O=C(NCc1cccs1)c1ccc(-n2ccnc2)c(-n2cccc2)c1 [CBK285366], the “% of control remaining” value is reported as 103.202%.
With COc1cc(OC)c2nc(C(F)(F)F)cc(Cl)c2c1 [CBK006518] the “% of control remaining” value was 153.249%.
In the case of CCCc1cc(C(=O)OC)c(NC(=O)c2c(C)noc2C)s1 [CBK058088], the “% of control remaining” value is reported as 129.621%.
Cc1nc2cccnc2n1C1CCN(C(=O)NCc2ccccc2)CC1 [CBK282291] was tested, and the “% of control remaining” value was 128.774%.
In the case of O=S(=O)(c1ccc(-c2csc(-c3ccccc3)n2)cc1)N1CCCCCC1 [CBK265504], the “% of control remaining” value is reported as 100%.
CC(=O)N1CCc2sccc2C1c1ccc(NC(=O)c2ccc(F)cc2)cc1 (centres unmarked) [CBK286434] was tested, and the “% of control remaining” value was 130.117%.
COc1ccc(CNC(=O)C(=O)NCc2ccccc2)cc1 [CBK262158] was tested, and the “% of control remaining” value was 100%.
For CC(C)(C)C1=CC2=NC3(CCCC3)[C@@H]3C[C@@H](O)[C@@H](O)[C@@H]3N2O1 [CBK303245], the “% of control remaining” value was 135.308%.
With O=C(NCc1ccco1)c1ccc2c(=O)n(-c3ccccc3)c(=O)[nH]c2c1 [CBK287823] the “% of control remaining” value was 128.84%.
O=c1[nH]nc2c(SCc3ccccc3)nccn12 [CBK288440] was tested, and the “% of control remaining” value was 110.107%.
For O=C(O)Cc1cc2c(n1Cc1ccc(F)cc1)CCCC2=O [CBK283866], the “% of control remaining” value was 120.961%.
In the case of CCC(C)NC(=O)C1CCC(=O)N1Cc1ccc(C)cc1 (centres unmarked) [CBK294470], the “% of control remaining” value is reported as 133.288%.
With Cc1ccc(S(=O)(=O)NC(C)(C)CSc2nncn2N)cc1 [CBK266297] the “% of control remaining” value was 191.928%.
In the case of CC(C)(C)OC(=O)N1CC2(C1)N=C1C=C(C(C)(C)C)ON1[C@H]1[C@H](O)[C@H](O)C[C@H]12 [CBK303240], the “% of control remaining” value is reported as 154.445%.
In the case of CCOc1cc(C)ccc1S(=O)(=O)n1nnc2ccccc21 [CBK287796], the “% of control remaining” value is reported as 113.924%.
With COc1ccc(C2C=C(c3ccc(OC)c(OC)c3)Nc3ncnn32)c(OC)c1 (centres unmarked) [CBK293934] the “% of control remaining” value was 141.027%.
With O=C(CC1CCCO1)NS(=O)(=O)c1cccc(-c2nnco2)c1 (centres unmarked) [CBK305267] the “% of control remaining” value was 131.029%.
O=C(NCCc1cccs1)C(c1ccccc1)c1ccccc1 [CBK270275] was tested, and the “% of control remaining” value was 136.352%.
For CC(=O)Nc1cccc(C(=O)OCC(=O)N2CCCC2)c1 [CBK306395], the “% of control remaining” value was 135.157%.
In the case of CCN(CC)C(=O)c1sc2ncccc2c1NS(=O)(=O)c1cc(Cl)sc1Cl [CBK050615], the “% of control remaining” value is reported as 114.589%.
For Cc1nc(S(=O)(=O)N2CCC(C(=O)N3CCCC3)CC2)cn1C [CBK305786], the “% of control remaining” value was 163.841%.
In the case of CCCNCCc1ccc(NC(=O)Nc2cc(F)cc3c2OCOC3)cc1 [CBK173887T], the “% of control remaining” value is reported as 115.648%.
With Cc1ccc(N(Cc2cc3cccc(C)c3nc2O)C(=O)c2cccc([N+](=O)[O-])c2)cc1 [CBK265426] the “% of control remaining” value was 124.182%.
In the case of Cc1cc(C[C@@H]2CCC[C@H]2NCc2nc3ccccc3[nH]2)on1 [CBK284935], the “% of control remaining” value is reported as 97.4839%.
With Cc1ccc(-c2cnc(SCC(N)=O)n2-c2ccccc2)cc1 [CBK287757] the “% of control remaining” value was 102.755%.
With CC(C)(C)C1CCC(OC(=O)CCC(=O)Nc2nccs2)CC1 (centres unmarked) [CBK260890] the “% of control remaining” value was 100%.
For Cc1cc(C)c2[nH]c(C)c(CC(=O)N(C)CCN(C)C)c2c1 [CBK282731], the “% of control remaining” value was 131.277%.
With CCN(CC)C1=NC(=S)N(C)C(c2ccc(OC)cc2)S1 (centres unmarked) [CBK006804] the “% of control remaining” value was 88.7846%.
Cc1ccc(C(=O)Nc2cccc(-c3ccc4nnc(C)n4n3)c2)cc1 [CBK287683] was tested, and the “% of control remaining” value was 125.455%.
In the case of Nc1nccc2c1ncn2[C@H]1C[C@@H](O)[C@@H](CO)O1 [CBK201157], the “% of control remaining” value is reported as 148.237%.
For Cc1ccc(S(N)(=O)=O)cc1C(=O)Nc1nncs1 [CBK050456], the “% of control remaining” value was 162.967%.
In the case of Cc1c(C(C)NCCc2nnc[nH]2)cnn1-c1ccc(C#N)cc1 (centres unmarked) [CBK304063], the “% of control remaining” value is reported as 116.88%.
With Cc1c(NC(=O)Nc2ccc(Cl)cc2)sc(=S)n1C [CBK027495] the “% of control remaining” value was 72.5464%.
For CCCS(=O)(=O)N1CCC(C(=O)NCc2ccc(Cl)cc2Cl)CC1 [CBK305559], the “% of control remaining” value was 113.061%.
With CC1CCc2c(sc3nc(SCC(=O)NC(c4ccccc4)c4ccccc4)nc(N)c23)C1 (centres unmarked) [CBK267274] the “% of control remaining” value was 125.531%.
CC1CCc2c(sc(NC(=O)c3ccncc3)c2C(N)=O)C1 (centres unmarked) [CBK288530] was tested, and the “% of control remaining” value was 128.219%.
With Cc1cc(-c2ccc([N+](=O)[O-])cc2)nc2ccc3ccccc3c12 [CBK263253C] the “% of control remaining” value was 121.798%.
O=C1NC2CCCCC2NC1CC(=O)N1CCN(Cc2ccccc2)CC1 (centres unmarked) [CBK269484] was tested, and the “% of control remaining” value was 139.772%.
Cc1[nH]c2ccccc2c1C(=O)CSc1nc2scc(-c3ccco3)c2c(=O)n1-c1ccccc1 [CBK267933] was tested, and the “% of control remaining” value was 124.789%.
For O=S(=O)(c1ccc(-n2cnc(Cl)c2Cl)cc1)N1CCCN(Cc2ccc3cccc(O)c3n2)CC1 [CBK063088], the “% of control remaining” value was 107.071%.
In the case of CCCCN1CC(C(=O)OCC)=C(O)C1=O [CBK028774], the “% of control remaining” value is reported as 120.733%.
For CC(=O)Nc1cc2ccccc2nc1C1CCN(C(=O)C(C)C)CC1 [CBK285259], the “% of control remaining” value was 120.285%.
In the case of c1ccc(Cn2cc(-c3nccnc3OCCn3ccnc3)cn2)cc1 [CBK107102], the “% of control remaining” value is reported as 127.844%.
With CC1CC(C)CN(CCCNC(=O)c2cc(-c3cccs3)no2)C1 (centres unmarked) [CBK281949] the “% of control remaining” value was 142.877%.
For Cc1nn(C(C)CC(=O)NCCN2CCC(C)CC2)c(C)c1Cl (centres unmarked) [CBK281558], the “% of control remaining” value was 121.575%.
In the case of CC(C)(CO)CNc1cc(Cl)nc2ccnn12 [CBK037200], the “% of control remaining” value is reported as 116.832%.
COc1ccc(CCNC(=S)NC2CC3CCC2C3)cc1OC (centres unmarked) [CBK015410] was tested, and the “% of control remaining” value was 113.69%.
In the case of COc1cccc(C(=O)Nc2ccc(O)c(C)c2)c1 [CBK264413], the “% of control remaining” value is reported as 131.384%.
For Cc1ccc(-n2c(=O)[nH]c3c(C(=O)Nc4ccccc4)cn(C)c3c2=O)cc1 [CBK287651], the “% of control remaining” value was 121.566%.
In the case of CCn1c(=O)n(CC(=O)N(C(C)C)C(C)C)c2cccnc21 [CBK283943], the “% of control remaining” value is reported as 153.852%.
Cc1c(Cl)cccc1S(=O)(=O)Nc1nc(CSc2ccccn2)ns1 [CBK200054] was tested, and the “% of control remaining” value was 103.56%.
For O=S(=O)(/C=C/c1ccccc1)Nc1cccc2cc[nH]c12 [CBK155788], the “% of control remaining” value was 91.2451%.
For CCN(Cc1ccco1)C(=O)NC1CCCc2c1cnn2CCO (centres unmarked) [CBK305767], the “% of control remaining” value was 118.289%.
With CCN1CCCC1Cn1c(=S)[nH]c2ccccc2c1=O (centres unmarked) [CBK267849] the “% of control remaining” value was 145.398%.
Cc1ccnc(SCC(N)=O)n1 [CBK028874] was tested, and the “% of control remaining” value was 143.086%.
In the case of O=C(c1cccc([N+](=O)[O-])c1)c1ccc2c(c1)C(=O)N(Cc1cccnc1)C2=O [CBK262784], the “% of control remaining” value is reported as 100%.
CC(=O)Nc1nc2[nH]c(C)c(Cc3ccccc3)c(=O)n2n1 [CBK288202] was tested, and the “% of control remaining” value was 127.402%.
With COCCCNC(=O)COc1cc(C)ccc1C [CBK264625] the “% of control remaining” value was 100%.
In the case of O=C1CC(N2CCN(c3ccc(S(=O)(=O)N4CCOCC4)cc3)CC2)C(=O)N1Cc1ccccc1 (centres unmarked) [CBK268713], the “% of control remaining” value is reported as 107.036%.
